Values quoted from earlier work in patent US10149824B2, “Reverse hexagonal mesophases (HII) and uses thereof” (YISSUM RESEARCH DEVELOPMENT COMPANY OF THE HEBREW …, priority 2009, dated 2018).
Some entries share one result that the patent states for a list of compounds.

Settings: cubic phase, period of three weeks

B1: conalbumin: large macromolecule released from cubic phase (protein, UniProt P02789 20-705, looked up)
Ovotransferrin: APPKSVIRWCTISSPEEKKCNNLRDLTQQERISLTCVQKATYLDCIKAIANNEADAISLDGGQAFEAGLAPYKLKPIAAEVYEHTEGSTTSYYAVAVVKKGTEFTVNDLQGKTSCHTGLGRSAGWNIPIGTLLHRGAIEWEGIESGSVEQAVAKFFSASCVPGATIEQKLCRQCKGDPKTKCARNAPYSGYSGAFHCLKDGKGDVAFVKHTTVNENAPDQKDEYELLCLDGSRQPVDNYKTCNWARVAAHAVVARDDNKVEDIWSFLSKAQSDFGVDTKSDFHLFGPPGKKDPVLKDLLFKDSAIMLKRVPSLMDSQLYLGFEYYSAIQSMRKDQLTPSPRENRIQWCAVGKDEKSKCDRWSVVSNGDVECTVVDETKDCIIKIMKGEADAVALDGGLVYTAGVCGLVPVMAERYDDESQCSKTDERPASYFAVAVARKDSNVNWNNLKGKKSCHTAVGRTAGWVIPMGLIHNRTGTCNFDEYFSEGCAPGSPPNSRLCQLCQGSGGIPPEKCVASSHEKYFGYTGALRCLVEKGDVAFIQHSTVEENTGGKNKADWAKNLQMDDFELLCTDGRRANVMDYRECNLAEVPTHAVVVRPEKANKIRDLLERQEKRFGVNGSEKSKFMMFESQNKDLLFKDLTKCLFKVREGTTYKEFLGDKFYTVISSLKTCNPSDILQMCSFLEGK
  release: less than 12%
